# Test results taken from PubChem BioAssay AID382 (SGCOxCompounds, 2006).
# Amino acid sequences for entries named in this document (tags omitted). A change or cut given only in a name is not applied to a line headed by its entry.
# UniProt P49759: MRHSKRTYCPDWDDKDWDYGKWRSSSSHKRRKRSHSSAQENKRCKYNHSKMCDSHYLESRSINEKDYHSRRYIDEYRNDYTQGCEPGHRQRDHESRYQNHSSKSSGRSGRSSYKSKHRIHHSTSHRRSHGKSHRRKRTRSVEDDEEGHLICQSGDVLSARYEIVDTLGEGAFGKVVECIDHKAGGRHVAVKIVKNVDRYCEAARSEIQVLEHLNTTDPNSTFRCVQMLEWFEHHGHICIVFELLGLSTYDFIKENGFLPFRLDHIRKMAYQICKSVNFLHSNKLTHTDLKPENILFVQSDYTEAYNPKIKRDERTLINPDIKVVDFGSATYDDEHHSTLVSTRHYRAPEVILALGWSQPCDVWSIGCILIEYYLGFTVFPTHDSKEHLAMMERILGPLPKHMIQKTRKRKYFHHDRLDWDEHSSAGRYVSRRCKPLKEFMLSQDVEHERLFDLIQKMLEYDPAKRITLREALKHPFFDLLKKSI
# The hits were mostly taken out for another list; the other results follow. Calls of active or inactive are those of the source. No rule for the calls is given here.
# Target: Dual specificity protein kinase CLK1 (Homo sapiens) (UniProt P49759)
# Assay: CLK1 binders by thermal stabilization, biophysical, recombinant human kinase, DSF (AID 382)
# Conditions: at 10 µM, protein 2 µM, buffer 10 mM HEPES, pH 7.5, NaCl 150 mM, with 50 µM L-Arg/L-Glu (1:1), hits give high values
smiles,measurement,value
CCC(CO)Nc1ccc2ncc(-c3cccc(Cl)c3)n2n1 (stereo unspecified),Tm shift,active: 5.5 Celsius
